The source of these data is PubChem BioAssay AID2685 (National Center for Advancing Translational Sciences (NCATS), 2010).

The other results are listed elsewhere or left out. The main result of the screen is listed elsewhere. These columns were measured beside it and carry no call. Compounds called inactive in the main read-out are mostly missing here. Potencies come from curve fits of mixed quality, noted in brackets.

A short description of the test: qHTS Assay for Lipid Storage Modulators in Drosophila S3 Cells.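 On cell number change: cells counted by Cell Tracker Red CMTPX staining in the red channel.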 Particulars: BODIPY lipid droplet fluorescence, 18-24 h; for cell number change: measured here: cell count max response, cells fed with added oleic acid. In short, it runs like this:
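Drosophila S3 cells loaded with oleic acid (400 uM, as added) and compounds at several concentrations; lipid droplets imaged by 488-nm laser-scanning cytometry, 500–530 nm intensity and object ratio to cell channel. Percent activity normalized to 20 uM Triacsin C.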
(In general: qHTS replaces the single test concentration by a dilution series.)

[1] abbreviates: measured here: lipid fluorescence (Fed channel) AC50, cells fed with added oleic acid.
The mark [2] stands for this setting: measured here: cell number channel AC50, cells fed with added oleic acid.

Regarding `O=C(CCNC(=O)c1ccc([N+](=O)[O-])cc1)NCc1ccccc1`, the cell number change was 17.3%.

The AC50 is the concentration giving half of the maximal activity seen. Turning to `C/C(=N\Nc1ccccc1)c1cccc(N)c1`, the cell number change is -27.7%. Further, the AC50 under setting [1] is 29.1 µM [rising, single point].

With `COC(=O)[C@H]1C[C@@H](c2ccccc2)[C@H](C)C1(C)C`, the cell number change is -19.6%. Besides, the AC50 under setting [1] is 10.3 µM [falling, partial curve].

For the molecule `CCOc1ccc(NS(=O)(=O)c2ccc(SC)cc2)cc1`, the cell number change was -31.8%. Also, under setting [2], the AC50 was 18.4 µM [falling, single point]. For the same molecule, the AC50 under setting [1] is 23.1 µM [falling, single point].

As for `COc1ccc(C(=O)NCc2ccc(N3CCN(C)CC3)cc2)cc1`, the cell number change was -16.9%. In addition, the AC50 under setting [1] was 29.1 µM [rising, single point].

`NS(=O)(=O)c1ccc(Sc2ccc3ccccc3c2)nc1`: the cell number change was -4.05%. Further, the AC50 under setting [1] is 0.58 µM [falling, single point].

As for `N#C/C(=C\c1ccco1)C(=O)Nc1ccc(S(N)(=O)=O)cc1`, the cell number change turned out to be 3.52%. Further, under setting [2], the AC50 is 0.164 µM [falling, partial curve, poor fit].

As for `COc1ccc(C(=O)Nc2ccc3c(c2)OCCO3)cc1S(=O)(=O)N1CCOCC1`, the cell number change turned out to be 9.03%. The AC50 under setting [1] was 0.013 µM [rising, full curve, poor fit].

With `O=C(c1cc(C2CC2)nn1-c1ccccc1)N1CCN(c2ccc(O)cc2)CC1`, under setting [2], the AC50 was 1.64 µM [rising, partial curve].

As for `CCCc1nn(C)c(C(=O)Nc2ccc(C(C)(C)C)cc2)c1Cl`, the cell number change is -47%. Under setting [2], the AC50 was 20.6 µM [falling, partial curve]. Moreover, under setting [1], the AC50 was 29.1 µM [falling, partial curve].

Take `Cn1c(CN2CCCC2)nc2cc(NC(=O)c3ccco3)ccc21`: the cell number change stood at 4.12%. The AC50 under setting [2] was 0.651 µM [falling, single point]. Moreover, the half-maximal activity concentration (AC50) under setting [1] was 6.51 µM [falling, single point].

On to `COc1ccc(N2CCN(Cc3cc4c(cc3Br)OCCO4)CC2)cc1`, for which the cell number change was -19%. Moreover, under setting [1], the AC50 is 29.1 µM [falling, single point].

On to `Cc1c(Cl)cccc1Nc1ccccc1C(=O)O`, for which the cell number change is -7.75%.

For `C=CCOC(=O)C1=C[C@H](c2ccc(C(F)(F)F)cc2)[C@@H](CCCO)[C@H](OCC)O1`, the cell number change was -30%. For the same molecule, the AC50 under setting [2] is 29.1 µM [falling, single point]. For the same molecule, the concentration at half-maximal activity (AC50) under setting [1] was 29.1 µM [falling, single point].

Turning to `O=C(NCCCn1ccnc1)C(=O)c1c[nH]c2ccccc12`, the cell number change stood at 56.5%. The AC50 under setting [2] is 0.00461 µM [rising, full curve, poor fit].

On to `N#CC1=C(N)C(C#N)(C#N)C(c2cccnc2)C2CC(c3ccccc3)CC=C12` (configuration not stated), for which the cell number change is -25.8%. Also, the AC50 under setting [1] was 0.206 µM [falling, full curve].

As for `COc1ccc(CCCCCCOCc2ccccc2)cc1`, the cell number change stood at 7.24%. For the same molecule, the AC50 under setting [1] is 2.06 µM [rising, partial curve, poor fit].

Take `COc1ccc(NC(=O)COc2ccccc2Cc2ccccc2)cc1S(N)(=O)=O`: the cell number change is -10.8%. The AC50 under setting [1] was 6.51 µM [rising, single point].

For `CCn1c(C)nc2cc(C(=O)OC(C(F)(F)C(F)F)C(F)(F)C(F)F)ccc21`, the cell number change is -57.5%. The AC50 under setting [2] is 14.6 µM [falling, partial curve]. For the same molecule, the AC50 under setting [1] was 18.4 µM [falling, partial curve].

Regarding `CCOC(=O)N1CCN(C(=O)CCSc2ccc(C)cc2)CC1`, the cell number change was -9.06%. Also, under setting [2], the AC50 is 0.731 µM [falling, single point].

`COc1ccc(Cl)cc1-c1nc(-c2ccncc2)no1`: the cell number change is -18.2%. Further, the half-maximal activity concentration (AC50) under setting [1] is 1.46 µM [rising, partial curve].

Consider `CN(CC(=O)Nc1ccc(F)cc1)C(=O)c1cccc(NS(=O)(=O)c2ccccc2)c1`, for which the cell number change came to 38.3%. For the same molecule, the AC50 under setting [2] was 29.1 µM [rising, single point]. Under setting [1], the AC50 was 32.6 µM [rising, single point].

Turning to `O=C1NCCCC1C(=O)N1CCN(C(c2ccccc2)c2ccccc2)CC1` (configuration not stated), the cell number change is -5.83%. For the same molecule, the AC50 under setting [2] is 4.61 µM [falling, single point]. Besides, the AC50 under setting [1] was 11.6 µM [falling, partial curve].

With `Cc1cc2cc3c(cc2nc1SCc1ccccn1)OCCO3`, the cell number change was -2.2%. Further, under setting [1], the AC50 was 4.11 µM [rising, single point].

Turning to `CC1CCCCC1NC(=O)COC(=O)COc1ccc(Cl)cc1` (configuration not stated), the cell number change is -9.19%.

On to `COC(=O)c1ccccc1NC(=O)COc1ccc(S(=O)(=O)N2CCCC2)cc1C`, for which the cell number change stood at 10.5%. Moreover, under setting [1], the AC50 was 2.06 µM [rising, partial curve, poor fit].

For the molecule `O=C(NC1CCCCCCC1)c1ccccc1O`, the cell number change was -8.72%. For the same molecule, the half-maximal activity concentration (AC50) under setting [1] is 0.231 µM [falling, full curve].

With `CCCCCn1c(CN2CCN(C(=O)OCC)CC2)nc2c1c(=O)[nH]c(=O)n2C`, the cell number change is 28.9%. The AC50 under setting [2] was 1.84 µM [rising, full curve, poor fit].

In the case of `CCCOc1ccc(N2C(=O)CC(N3CCC(C(=O)OCC)CC3)C2=O)cc1` (configuration not stated), the cell number change was 4.98%.

As for `CC1CC(=O)Nc2ccccc2N1S(=O)(=O)c1ccc(Br)cc1` (configuration not stated), the cell number change is -30.2%. The AC50 under setting [2] is 0.92 µM [falling, full curve]. Further, under setting [1], the AC50 is 1.3 µM [falling, full curve].

`O=C(NC12CC3CC(CC(C3)C1)C2)c1ccc([N+](=O)[O-])o1`: the cell number change is -52.2%. For the same molecule, under setting [2], the AC50 was 8.2 µM [falling, partial curve]. Further, under setting [1], the AC50 is 6.51 µM [falling, full curve].

On to `CSc1oc(-c2ccco2)nc1S(=O)(=O)c1ccccc1`, for which the AC50 under setting [1] was 18.4 µM [rising, partial curve, poor fit].

Turning to `COCC(=O)Nc1nc2ccccc2s1`, the cell number change came out at 7.72%. Also, the AC50 under setting [1] was 29.1 µM [rising, single point].

In the case of `CCC1CCCCN1S(=O)(=O)c1ccc(C(=O)Nc2nnc(-c3cccs3)o2)cc1` (configuration not stated), the cell number change was -13%. The AC50 under setting [1] was 14.6 µM [falling, single point].

On to `CCCCn1c(N)c(N(CC)C(=O)c2cnc(C)cn2)c(=O)[nH]c1=O`, for which the cell number change came out at 2.13%. Further, the AC50 under setting [2] was 1.46 µM [falling, partial curve]. Also, the AC50 under setting [1] is 2.06 µM [rising, full curve].

For the molecule `Cc1ccc(Cl)cc1N1CCN(C(=O)c2cn(C)c(=O)c3c2c2ccccc2n3C)CC1`, the cell number change was found to be 9.33%. For the same molecule, the AC50 under setting [1] is 0.517 µM [rising, full curve].

Turning to `CO/N=C/C(=N\Nc1cc(OC)cc(OC)c1)C(=O)c1ccccc1`, the cell number change amounted to 9.78%.
